Source: the supplement of paper PMC10849652
Some of the results follow.

Amino acid sequences for entries named in this document (tags omitted). A change or cut given only in a name is not applied to a line headed by its entry.
UniProt P01008, whole entry, looked up: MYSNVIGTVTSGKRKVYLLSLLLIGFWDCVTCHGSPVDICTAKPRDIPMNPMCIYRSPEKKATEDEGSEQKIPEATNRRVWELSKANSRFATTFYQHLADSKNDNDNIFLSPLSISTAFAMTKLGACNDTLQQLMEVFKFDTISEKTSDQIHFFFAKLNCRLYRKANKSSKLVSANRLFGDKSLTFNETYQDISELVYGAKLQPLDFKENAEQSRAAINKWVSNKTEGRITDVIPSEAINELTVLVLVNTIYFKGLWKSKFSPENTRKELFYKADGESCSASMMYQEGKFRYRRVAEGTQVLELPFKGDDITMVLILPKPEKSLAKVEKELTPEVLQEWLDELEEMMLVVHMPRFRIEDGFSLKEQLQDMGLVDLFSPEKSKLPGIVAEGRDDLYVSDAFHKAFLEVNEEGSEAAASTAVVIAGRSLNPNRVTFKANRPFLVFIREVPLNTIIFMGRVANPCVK
UniProt Q8WVK7: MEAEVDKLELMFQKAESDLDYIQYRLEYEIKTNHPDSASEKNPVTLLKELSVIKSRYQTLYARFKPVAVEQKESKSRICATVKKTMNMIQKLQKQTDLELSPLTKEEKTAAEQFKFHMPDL
UniProt Q9UHW9: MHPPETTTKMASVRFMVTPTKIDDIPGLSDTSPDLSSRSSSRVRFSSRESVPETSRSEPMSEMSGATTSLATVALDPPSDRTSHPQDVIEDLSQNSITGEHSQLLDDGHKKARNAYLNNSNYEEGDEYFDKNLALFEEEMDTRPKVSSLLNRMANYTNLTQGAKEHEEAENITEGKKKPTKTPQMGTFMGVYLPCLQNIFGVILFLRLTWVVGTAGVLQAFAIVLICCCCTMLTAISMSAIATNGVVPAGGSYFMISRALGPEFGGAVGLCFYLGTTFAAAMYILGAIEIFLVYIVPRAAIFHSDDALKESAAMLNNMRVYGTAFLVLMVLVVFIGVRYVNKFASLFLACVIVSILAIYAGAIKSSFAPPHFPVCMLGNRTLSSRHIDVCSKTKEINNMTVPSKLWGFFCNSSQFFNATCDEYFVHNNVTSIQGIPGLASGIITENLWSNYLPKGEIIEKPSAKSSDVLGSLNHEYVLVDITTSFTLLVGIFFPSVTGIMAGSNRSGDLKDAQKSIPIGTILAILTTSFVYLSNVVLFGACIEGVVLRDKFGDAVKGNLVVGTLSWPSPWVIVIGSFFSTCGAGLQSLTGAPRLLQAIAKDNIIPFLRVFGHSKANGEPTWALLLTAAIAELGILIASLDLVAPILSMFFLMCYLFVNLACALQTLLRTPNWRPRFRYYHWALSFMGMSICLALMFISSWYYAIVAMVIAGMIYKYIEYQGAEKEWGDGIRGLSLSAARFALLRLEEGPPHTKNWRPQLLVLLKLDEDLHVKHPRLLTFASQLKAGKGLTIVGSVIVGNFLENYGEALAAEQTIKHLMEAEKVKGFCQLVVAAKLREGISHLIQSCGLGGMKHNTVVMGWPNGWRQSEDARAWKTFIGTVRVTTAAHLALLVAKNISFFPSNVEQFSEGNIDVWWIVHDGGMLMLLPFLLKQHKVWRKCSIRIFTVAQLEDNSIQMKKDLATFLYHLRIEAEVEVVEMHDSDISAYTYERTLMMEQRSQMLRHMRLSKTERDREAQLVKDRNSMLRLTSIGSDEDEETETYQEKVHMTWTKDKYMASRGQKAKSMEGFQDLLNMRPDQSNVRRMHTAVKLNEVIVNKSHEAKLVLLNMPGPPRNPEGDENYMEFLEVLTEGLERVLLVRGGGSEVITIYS
UniProt P55822: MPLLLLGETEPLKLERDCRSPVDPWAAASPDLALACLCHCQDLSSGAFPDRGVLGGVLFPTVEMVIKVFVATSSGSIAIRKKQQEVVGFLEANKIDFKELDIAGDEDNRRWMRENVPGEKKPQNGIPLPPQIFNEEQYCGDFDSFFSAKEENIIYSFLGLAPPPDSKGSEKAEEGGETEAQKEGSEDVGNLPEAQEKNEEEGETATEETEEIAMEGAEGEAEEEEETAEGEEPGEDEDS
UniProt Q15428: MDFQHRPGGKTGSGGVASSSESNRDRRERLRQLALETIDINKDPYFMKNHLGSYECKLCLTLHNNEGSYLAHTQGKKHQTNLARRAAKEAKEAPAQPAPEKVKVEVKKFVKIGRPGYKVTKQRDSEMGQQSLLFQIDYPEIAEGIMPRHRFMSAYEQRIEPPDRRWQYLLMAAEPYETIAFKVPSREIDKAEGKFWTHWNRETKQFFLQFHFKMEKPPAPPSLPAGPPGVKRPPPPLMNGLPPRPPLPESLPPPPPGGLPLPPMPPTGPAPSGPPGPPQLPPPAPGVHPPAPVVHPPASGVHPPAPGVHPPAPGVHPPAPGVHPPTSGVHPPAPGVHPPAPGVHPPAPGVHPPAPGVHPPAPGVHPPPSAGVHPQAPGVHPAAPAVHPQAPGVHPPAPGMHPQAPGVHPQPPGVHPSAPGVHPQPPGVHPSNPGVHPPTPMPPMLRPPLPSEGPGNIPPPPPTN
UniProt P43007: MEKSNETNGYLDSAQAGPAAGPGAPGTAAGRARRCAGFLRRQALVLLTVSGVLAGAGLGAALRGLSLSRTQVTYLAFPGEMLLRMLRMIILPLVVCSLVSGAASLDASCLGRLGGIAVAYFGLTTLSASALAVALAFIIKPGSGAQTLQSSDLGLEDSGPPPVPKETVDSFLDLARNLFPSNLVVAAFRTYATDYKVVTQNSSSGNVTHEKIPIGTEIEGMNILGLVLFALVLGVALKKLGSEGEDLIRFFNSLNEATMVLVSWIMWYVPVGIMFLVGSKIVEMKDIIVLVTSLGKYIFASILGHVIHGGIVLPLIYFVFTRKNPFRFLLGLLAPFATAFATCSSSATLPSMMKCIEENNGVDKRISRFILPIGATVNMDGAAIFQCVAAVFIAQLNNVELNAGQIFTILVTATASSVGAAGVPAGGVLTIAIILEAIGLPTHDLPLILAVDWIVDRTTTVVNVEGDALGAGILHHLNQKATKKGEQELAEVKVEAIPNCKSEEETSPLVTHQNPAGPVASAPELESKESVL
UniProt O75533, whole entry, looked up: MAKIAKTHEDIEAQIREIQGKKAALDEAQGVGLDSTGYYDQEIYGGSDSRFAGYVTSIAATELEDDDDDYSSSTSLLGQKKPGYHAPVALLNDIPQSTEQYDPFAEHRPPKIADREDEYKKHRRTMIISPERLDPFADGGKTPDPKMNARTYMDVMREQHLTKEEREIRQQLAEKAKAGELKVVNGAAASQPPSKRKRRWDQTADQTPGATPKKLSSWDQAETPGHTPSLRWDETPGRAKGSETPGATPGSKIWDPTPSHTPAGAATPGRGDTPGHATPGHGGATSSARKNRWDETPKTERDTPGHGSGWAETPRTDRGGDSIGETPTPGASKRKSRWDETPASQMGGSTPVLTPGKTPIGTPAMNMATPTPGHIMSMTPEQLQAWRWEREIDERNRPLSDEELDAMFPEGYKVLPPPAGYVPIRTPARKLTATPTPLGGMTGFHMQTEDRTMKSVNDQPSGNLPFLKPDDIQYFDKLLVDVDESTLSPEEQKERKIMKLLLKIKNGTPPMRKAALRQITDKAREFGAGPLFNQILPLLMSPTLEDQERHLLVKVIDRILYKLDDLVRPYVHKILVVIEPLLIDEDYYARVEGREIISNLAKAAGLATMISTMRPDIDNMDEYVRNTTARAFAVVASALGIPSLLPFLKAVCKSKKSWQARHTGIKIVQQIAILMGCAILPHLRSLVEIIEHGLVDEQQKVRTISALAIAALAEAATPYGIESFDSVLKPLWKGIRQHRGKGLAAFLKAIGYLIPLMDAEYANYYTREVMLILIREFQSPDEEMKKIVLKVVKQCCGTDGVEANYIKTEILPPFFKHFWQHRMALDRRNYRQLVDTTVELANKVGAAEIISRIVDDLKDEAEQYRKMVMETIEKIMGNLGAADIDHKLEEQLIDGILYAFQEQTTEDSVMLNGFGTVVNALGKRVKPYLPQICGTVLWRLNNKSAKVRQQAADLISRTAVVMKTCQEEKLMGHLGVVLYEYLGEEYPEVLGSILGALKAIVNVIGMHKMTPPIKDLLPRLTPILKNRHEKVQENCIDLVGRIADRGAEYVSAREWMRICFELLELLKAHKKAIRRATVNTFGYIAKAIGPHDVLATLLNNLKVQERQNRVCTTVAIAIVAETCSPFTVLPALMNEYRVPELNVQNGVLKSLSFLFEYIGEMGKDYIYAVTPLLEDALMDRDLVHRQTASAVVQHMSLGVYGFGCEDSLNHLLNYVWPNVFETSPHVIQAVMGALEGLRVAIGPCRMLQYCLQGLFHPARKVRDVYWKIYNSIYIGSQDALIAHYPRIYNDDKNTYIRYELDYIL
UniProt Q8NC51: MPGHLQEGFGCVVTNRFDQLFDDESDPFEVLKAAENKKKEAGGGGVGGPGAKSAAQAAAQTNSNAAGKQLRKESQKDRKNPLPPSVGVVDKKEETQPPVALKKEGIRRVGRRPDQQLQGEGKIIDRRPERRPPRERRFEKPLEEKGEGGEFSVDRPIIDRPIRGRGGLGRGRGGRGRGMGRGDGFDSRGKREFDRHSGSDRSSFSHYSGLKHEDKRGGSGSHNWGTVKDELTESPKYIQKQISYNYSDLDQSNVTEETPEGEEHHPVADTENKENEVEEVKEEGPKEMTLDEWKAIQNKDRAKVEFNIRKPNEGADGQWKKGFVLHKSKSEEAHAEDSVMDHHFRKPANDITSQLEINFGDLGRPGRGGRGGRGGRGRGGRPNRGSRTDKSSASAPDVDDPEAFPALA
UniProt Q14493, whole entry, looked up: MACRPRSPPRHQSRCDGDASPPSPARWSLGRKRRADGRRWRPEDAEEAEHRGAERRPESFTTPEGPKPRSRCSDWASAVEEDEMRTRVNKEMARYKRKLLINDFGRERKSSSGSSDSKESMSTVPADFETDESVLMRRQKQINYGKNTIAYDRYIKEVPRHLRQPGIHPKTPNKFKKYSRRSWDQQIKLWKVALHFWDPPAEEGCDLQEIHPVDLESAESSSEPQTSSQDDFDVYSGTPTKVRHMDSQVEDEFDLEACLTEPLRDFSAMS
UniProt A0MZ66, whole entry, looked up: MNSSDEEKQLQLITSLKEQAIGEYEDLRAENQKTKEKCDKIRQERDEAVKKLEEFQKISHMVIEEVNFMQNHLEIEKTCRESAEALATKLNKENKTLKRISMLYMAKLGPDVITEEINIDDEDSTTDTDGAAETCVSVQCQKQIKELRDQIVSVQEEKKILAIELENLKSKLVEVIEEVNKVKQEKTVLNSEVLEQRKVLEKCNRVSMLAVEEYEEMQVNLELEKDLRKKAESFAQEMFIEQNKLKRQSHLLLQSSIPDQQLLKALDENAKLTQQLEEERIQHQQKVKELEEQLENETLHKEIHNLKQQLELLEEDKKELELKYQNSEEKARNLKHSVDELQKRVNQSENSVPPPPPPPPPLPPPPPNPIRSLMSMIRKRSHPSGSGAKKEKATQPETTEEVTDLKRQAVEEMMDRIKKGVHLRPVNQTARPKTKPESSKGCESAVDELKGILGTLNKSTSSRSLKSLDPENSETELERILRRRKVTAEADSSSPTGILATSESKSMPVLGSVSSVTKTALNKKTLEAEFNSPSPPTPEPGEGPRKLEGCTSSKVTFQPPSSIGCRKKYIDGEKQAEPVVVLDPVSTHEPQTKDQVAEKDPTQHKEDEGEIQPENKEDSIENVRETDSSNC
UniProt Q96BD8: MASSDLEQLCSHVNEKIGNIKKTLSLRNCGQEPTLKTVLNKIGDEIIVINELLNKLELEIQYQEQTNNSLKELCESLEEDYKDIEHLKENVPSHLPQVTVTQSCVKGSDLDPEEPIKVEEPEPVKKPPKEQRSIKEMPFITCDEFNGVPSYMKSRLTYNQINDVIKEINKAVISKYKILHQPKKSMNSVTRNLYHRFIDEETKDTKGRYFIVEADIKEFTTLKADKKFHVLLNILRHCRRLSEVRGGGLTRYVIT

Key:
Assay in all cases: log2 fold change, soluble protein after heating vs DMSO (PISA); higher = thermal stabilisation; K562 lysate, 10 uM; active = over 0.2 and 3.5 SD of the protein, either way, in both replicates (recomputed)
[1] = compound: CS(=O)(=O)CCNCc1ccc(-c2ccc3ncnc(Nc4ccc(OCc5cccc(F)c5)c(Cl)c4)c3c2)o1 [lapatinib]
Outline: (§1)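 Thermal stability, expressed as log-two fold change relative to solvent controls, is given from duplicates. Crude K562 extract in PBS pH 7.4 with 1 mM MgCl2, at 1 mg/mL protein, was treated with 10 μM compound for 30 min and heated in aliquots for 3 min across 48°C-58°C. After pooling, adjustment to 0.5% NP-40 at 4°C and centrifugation at 21,000xg for 90 min, supernatant protein was measured by TMTpro 16plex LC-MS/MS with channel sums equalised.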

[2] = compound: CS(=O)(=O)N1CCN(Cc2cc3nc(-c4cccc5[nH]ncc45)nc(N4CCOCC4)c3s2)CC1 [pictilisib]
Outline: as §1

[3] = compound: C[C@@H](Oc1cc(-c2cnn(C3CCNCC3)c2)cnc1N)c1c(Cl)ccc(F)c1Cl [crizotinib]
Outline: as §1

[4] = compound: C[C@H](C1=CC=C(C=C1)C(=O)NC2=C3C=CNC3=NC=C2)N
Outline: as §1

[5] = compound: C[C@H](Nc1ncnc2nc[nH]c12)c1cc2cccc(Cl)c2c(=O)n1-c1ccccc1 [duvelisib]
Outline: as §1

[6] = compound: Cc1cc(Nc2cc(CN3CCOCC3)c3nc(C)c(Cc4ccc(Cl)cc4F)n3n2)n[nH]1 [gandotinib]
Outline: as §1

[7] = compound: Cc1cc(Nc2cc(N3CCN(C)CC3)nc(Sc3ccc(NC(=O)C4CC4)cc3)n2)n[nH]1 [tozasertib]
Outline: as §1

[8] = compound: Cc1ccc(-n2nc(C(C)(C)C)cc2NC(=O)Nc2ccc(OCCN3CCOCC3)c3ccccc23)cc1 [doramapimod]
Outline: as §1

[9] = compound: Cc1ccc(NC(=O)c2ccc(CN3CC[C@H](N(C)C)C3)c(C(F)(F)F)c2)cc1Nc1nccc(-c2cncnc2)n1 [bafetinib]
Outline: as §1

[10] = compound: Cc1cccc(CC(=O)N2CCc3c2ccc(-c2cn(C)c4ncnc(N)c24)c3F)n1
Outline: as §1

Measured: log2 fold change

SLC20A2 (UniProt Q08357)
inactive: [1] 0.01 | [2] -0.046 | [3] 0.116 | [4] 0.006 | [5] 0.01 | [6] -0.018 | [7] -0.098 | [8] 0.001 | [9] 0.014 | [10] -0.039

SFSWAP isoform 2 (UniProt Q12872)
inactive: [1] -0.078 | [2] -0.021 | [3] 0.011 | [4] -0.097 | [5] -0.024 | [6] -0.089 | [7] -0.038 | [8] 0.064 | [9] -0.012 | [10] 0.095

SIPA1 (UniProt Q96FS4)
inactive: [1] 0.012 | [2] -0.013 | [3] -0.037 | [4] -0.034 | [5] -0.001 | [6] 0.024 | [7] 0.026 | [8] 0.008 | [9] -0.034 | [10] 0.042

SERPINC1 (UniProt P01008)
inactive: [1] 0.011 | [2] -0.182 | [3] 0.054 | [4] -0.164 | [5] -0.012 | [6] 0.188 | [7] 0.049 | [8] -0.055 | [9] 0.008 | [10] 0.093

2 records picked at random from those above:
SLC20A2 (UniProt Q08357)
inactive: [1] 0.01 | [2] -0.046 | [3] 0.116 | [4] 0.006 | [5] 0.01 | [6] -0.018 | [7] -0.098 | [8] 0.001 | [9] 0.014 | [10] -0.039

SERPINC1 (UniProt P01008)
inactive: [1] 0.011 | [2] -0.182 | [3] 0.054 | [4] -0.164 | [5] -0.012 | [6] 0.188 | [7] 0.049 | [8] -0.055 | [9] 0.008 | [10] 0.093

More results follow:

SKA2 (UniProt Q8WVK7)
inactive: [1] 0.005 | [2] -0.004 | [3] 0.027 | [4] 0.048 | [5] -0.004 | [6] -0.029 | [7] 0.048 | [8] -0.09 | [9] -0.017 | [10] 0.009

SIGMAR1 (UniProt Q99720)
inactive: [1] -0.006 | [2] -0.064 | [3] -0.037 | [4] -0.138 | [5] 0.008 | [6] 0.064 | [7] -0.017 | [8] -0.001 | [9] 0.008 | [10] 0.127

SLC12A6 (UniProt Q9UHW9)
inactive: [1] 0.037 | [2] -0.046 | [3] -0.025 | [4] 0.008 | [5] 0.015 | [6] -0.028 | [7] -0.002 | [8] 0.027 | [9] -0.011 | [10] 0.034

SH3BGR (UniProt P55822)
inactive: [1] -0.016 | [2] -0.034 | [3] 0.005 | [4] -0.031 | [5] 0.029 | [6] 0.041 | [7] -0.052 | [8] 0.026 | [9] -0.026 | [10] 0.032

SF3A2 (UniProt Q15428)
inactive: [1] 0.035 | [2] 0.021 | [3] -0.006 | [4] -0.124 | [5] -0.006 | [6] -0.003 | [7] -0.007 | [8] 0.002 | [9] 0.027 | [10] 0.044

SIRT1 (UniProt Q96EB6)
inactive: [1] -0.03 | [2] -0.014 | [3] -0.022 | [4] 0.055 | [5] -0.02 | [6] -0.05 | [7] 0.004 | [8] -0.012 | [9] -0.021 | [10] -0.016

SERPINB6, A0A087X1N8
inactive: [1] 0.039 | [2] -0.012 | [3] 0.007 | [4] -0.011 | [5] 0.005 | [6] 0.007 | [7] -0.04 | [8] -0.054 | [9] 0.079 | [10] -0.044

SET isoform 2 (UniProt Q01105)
inactive: [1] 0 | [2] 0.041 | [3] 0.006 | [4] 0.002 | [5] 0.033 | [6] 0.046 | [7] -0.01 | [8] -0.011 | [9] 0.002 | [10] -0.043

SF3B3 (UniProt Q15393)
inactive: [1] -0.025 | [2] -0.017 | [3] -0.015 | [4] -0.06 | [5] 0.041 | [6] 0.019 | [7] -0.013 | [8] 0.029 | [9] -0.025 | [10] 0.007

SERF2 (UniProt P84101)
inactive: [1] -0.146 | [2] -0.033 | [3] 0.038 | [4] -0.01 | [5] 0.03 | [6] 0.029 | [7] 0.147 | [8] 0.044 | [9] 0.011 | [10] 0.088

SF3B4 (UniProt Q15427)
inactive: [1] 0.084 | [2] -0.008 | [3] 0 | [4] -0.086 | [5] -0.006 | [6] 0.081 | [7] -0.056 | [8] -0.004 | [9] -0.014 | [10] 0.085

SLC1A4 (UniProt P43007)
inactive: [1] -0.032 | [2] 0.006 | [3] 0.056 | [4] -0.042 | [5] 0.017 | [6] 0.029 | [7] 0.004 | [8] 0.048 | [9] -0.001 | [10] -0.018

SH2D2A isoform 2 (UniProt Q9NP31)
inactive: [1] 0.102 | [2] 0.043 | [3] -0.01 | [4] -0.068 | [5] 0.154 | [6] 0.054 | [7] 0.177 | [8] -0.102 | [9] -0.099 | [10] 0.065

SF3B1 (UniProt O75533)
inactive: [1] -0.002 | [2] -0.034 | [3] -0.044 | [4] -0.045 | [5] 0.005 | [6] -0.024 | [7] 0.016 | [8] 0.04 | [9] -0.023 | [10] 0.011

SFPQ (UniProt P23246)
inactive: [1] -0.018 | [2] -0.019 | [3] 0.057 | [4] 0.021 | [5] -0.019 | [6] -0.041 | [7] -0.012 | [8] 0.006 | [9] -0.015 | [10] -0.013

SF3B5 (UniProt Q9BWJ5)
inactive: [1] -0.006 | [2] -0.039 | [3] -0.062 | [4] 0.175 | [5] -0.012 | [6] -0.061 | [7] -0.042 | [8] -0.003 | [9] -0.089 | [10] -0.098

SFN (UniProt P31947)
active: [4] 0.347
inactive: [1] 0.018 | [2] 0.117 | [3] 0.055 | [5] -0.029 | [6] -0.043 | [7] 0.006 | [8] 0.019 | [9] 0.047 | [10] -0.117

SERBP1 (UniProt Q8NC51)
inactive: [1] -0.013 | [2] 0.054 | [3] 0.023 | [4] 0.21 | [5] -0.018 | [6] -0.013 | [7] 0.015 | [8] -0.045 | [9] 0.065 | [10] -0.064

SLBP (UniProt Q14493)
inactive: [1] 0.024 | [2] 0.023 | [3] 0.01 | [4] 0.084 | [5] -0.025 | [6] -0.005 | [7] 0.027 | [8] 0.03 | [9] -0.028 | [10] -0.072

SHCBP1 (UniProt Q8NEM2)
inactive: [1] 0.061 | [2] 0.046 | [3] -0.029 | [4] -0.043 | [5] 0.028 | [6] -0.031 | [7] 0.059 | [8] 0.028 | [9] -0.073 | [10] 0.078

SHTN1 (UniProt A0MZ66)
inactive: [1] -0.013 | [2] -0.006 | [3] 0.02 | [4] -0.017 | [5] -0.006 | [6] -0.003 | [7] 0.005 | [8] 0.007 | [9] -0.017 | [10] -0.014

SH2B1 (UniProt Q9NRF2)
inactive: [1] 0.113 | [2] -0.287 | [3] 0.014 | [4] -0.076 | [5] 0.102 | [6] 0.054 | [8] 0 | [9] 0.085 | [10] -0.038

SKA1 (UniProt Q96BD8)
inactive: [1] 0.001 | [2] 0.043 | [3] 0.009 | [4] -0.032 | [5] 0.042 | [6] 0.001 | [7] 0.086 | [8] 0.037 | [9] -0.029 | [10] 0.024
